PubChem BioAssay AID1259264, Sanger Institute | 2017
The deposit covers 794 reagents; below is a part drawn at random. In the full data, 15 (1.9%) got an active call. 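Calls rest on knock-down alone at z-score below -3; synergy scores with the three drugs do not decide them.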 A number with no mark means an inactive call. Not all columns of the deposit are shown. Not given: the amount of reagent, the time to read-out.

Aim: 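Kinases needed for CL40 growth and those that boost anti-cancer drug killing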 (primary screen)
Cell system: CL40 human colorectal cancer cells
Knock-down reagent: siRNA pool against human genes
Challenge: DMSO, or an anchor drug: BYL719 at 1 µM, cetuximab at 5 µg/ml, or trametinib at 10 nM
Measurement: 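Viability as a fraction of non-targeting pool control (replicates averaged), control-based robust z-score, plus averaged synergy for each drug: BYL719 1 µM, cetuximab 5 µg/ml, trametinib 10 nM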
Scale: robust z-score, siRNA alone: higher = more viable cells
Active means: 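a gene counts as essential when knock-down without drug gives a robust z-score below -3, meaning fewer cells; synergy scores play no part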
Calls: active = essential (lowers viability alone); inactive = not essential

The first 4 entries, to show the layout:
Target gene | robust z-score, siRNA alone
MAP3K21 (mitogen-activated protein kinase kinase kinase 21) | 0.539
RPS6KA6 (ribosomal protein S6 kinase A6) | 0.539
PRKAB1 (protein kinase AMP-activated non-catalytic subunit beta 1) | -1.25
UHMK1 (U2AF homology motif kinase 1) | 0.378

Main list, from the first entry:
Target gene | robust z-score, siRNA alone
MAP3K21 (mitogen-activated protein kinase kinase kinase 21) | 0.539
RPS6KA6 (ribosomal protein S6 kinase A6) | 0.539
PRKAB1 (protein kinase AMP-activated non-catalytic subunit beta 1) | -1.25
UHMK1 (U2AF homology motif kinase 1) | 0.378
PIK3C2A | -0.307
DGKB (diacylglycerol kinase beta) | -0.629
WEE1 (WEE1 G2 checkpoint kinase) | -0.576
ERN1 (endoplasmic reticulum to nucleus signaling 1) | 0.539
CDK19 (cyclin dependent kinase 19) | -0.739
ERN2 (endoplasmic reticulum to nucleus signaling 2) | 0.539
SIK2 (salt inducible kinase 2) | -0.282
CSNK1A1L (casein kinase 1 alpha 1 like) | 0.539
PAPSS2 (3'-phosphoadenosine 5'-phosphosulfate synthase 2) | 0.151
PIK3CD | 0.136
KMT2B (lysine methyltransferase 2B) | 0.46
DYRK2 (dual specificity tyrosine phosphorylation regulated kinase 2) | -0.905
GSK3B (glycogen synthase kinase 3 beta) | 0.436
PRKY (protein kinase Y-linked (pseudogene)) | -0.302
PIP5K1B (phosphatidylinositol-4-phosphate 5-kinase type 1 beta) | 0.539
PRKD3 (protein kinase D3) | 0.161
PFKFB1 (6-phosphofructo-2-kinase/fructose-2,6-biphosphatase 1) | -0.753
EPHA4 (EPH receptor A4) | 0.511
ALPK3 (alpha kinase 3) | 0.00613
TYK2 (tyrosine kinase 2) | 0.539
CHKA (choline kinase alpha) | -0.0895
DTYMK (deoxythymidylate kinase) | 0.539
CHD4 (chromodomain helicase DNA binding protein 4) | -1.4
PRKACA (protein kinase cAMP-activated catalytic subunit alpha) | 0.539
FBXW7 (F-box and WD repeat domain containing 7) | 0.539
GNE | 0.539
TBCK (TBC1 domain containing kinase) | 0.539
MAPK6 (mitogen-activated protein kinase 6) | 0.539
ITPKB (inositol-trisphosphate 3-kinase B) | -0.438
MAP3K3 (mitogen-activated protein kinase kinase kinase 3) | -0.438
IPPK (inositol-pentakisphosphate 2-kinase) | 0.539
HUS1 (HUS1 checkpoint clamp component) | 0.475
IPMK (inositol polyphosphate multikinase) | 0.106
FGFR2 (fibroblast growth factor receptor 2) | 0.539
CIT (citron rho-interacting serine/threonine kinase) | -1.81
PIP4K2B (phosphatidylinositol-5-phosphate 4-kinase type 2 beta) | 0.539
EIF2AK2 (eukaryotic translation initiation factor 2 alpha kinase 2) | 0.539
CAMK2B (calcium/calmodulin dependent protein kinase II beta) | 0.539
PTK2B (protein tyrosine kinase 2 beta) | 0.539
TCF7L2 (transcription factor 7 like 2) | 0.524
PFKFB2 (6-phosphofructo-2-kinase/fructose-2,6-biphosphatase 2) | -0.704
ZC3H11A (zinc finger CCCH-type containing 11A) | 0.539
TLK2 (tousled like kinase 2) | 0.536
PTK6 (protein tyrosine kinase 6) | 0.42
MAP2K3 (mitogen-activated protein kinase kinase 3) | 0.539
ZAP70 (zeta chain of T cell receptor associated protein kinase 70) | 0.194
